Results taken from PMC6733791.
No constants are given. Whether binding was seen depends on the method and setting. In cells and extracts the contact can be indirect. Some results given as binding are weak or reduced against the parent protein; the word gives no strength. Blank lines part the entries; values can stand above or below the molecule they belong to.

The chains behind the UniProt entries cited, without tags or fusion partners.
UniProt Q15366: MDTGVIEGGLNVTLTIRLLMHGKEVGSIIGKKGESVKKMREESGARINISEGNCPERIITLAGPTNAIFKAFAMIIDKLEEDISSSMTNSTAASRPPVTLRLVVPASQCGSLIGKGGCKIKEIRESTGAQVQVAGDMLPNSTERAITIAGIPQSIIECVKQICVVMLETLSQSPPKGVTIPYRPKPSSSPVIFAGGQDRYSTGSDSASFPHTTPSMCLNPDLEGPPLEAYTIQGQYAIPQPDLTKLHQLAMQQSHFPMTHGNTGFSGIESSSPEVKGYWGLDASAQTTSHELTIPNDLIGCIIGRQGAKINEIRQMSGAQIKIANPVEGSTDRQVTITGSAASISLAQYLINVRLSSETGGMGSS
UniProt P46937: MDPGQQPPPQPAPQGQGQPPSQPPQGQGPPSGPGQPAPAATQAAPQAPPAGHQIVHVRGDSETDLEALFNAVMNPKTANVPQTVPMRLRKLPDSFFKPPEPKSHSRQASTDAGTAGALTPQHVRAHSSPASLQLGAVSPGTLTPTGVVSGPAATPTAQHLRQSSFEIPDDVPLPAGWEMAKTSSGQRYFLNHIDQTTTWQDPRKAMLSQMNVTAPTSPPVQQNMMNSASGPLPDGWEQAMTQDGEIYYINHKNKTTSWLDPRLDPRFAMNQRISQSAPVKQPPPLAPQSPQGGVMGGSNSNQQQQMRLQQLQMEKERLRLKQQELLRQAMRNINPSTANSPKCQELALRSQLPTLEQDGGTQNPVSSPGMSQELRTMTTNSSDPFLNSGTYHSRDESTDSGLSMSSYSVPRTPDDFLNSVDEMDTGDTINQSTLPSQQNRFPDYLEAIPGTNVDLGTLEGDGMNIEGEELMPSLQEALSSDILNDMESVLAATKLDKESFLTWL

Key:
[1] = target: poly(rC) binding protein 2 (PCBP2), endogenous (human (endogenous in Bel-7402 and SMMC-7721)) (UniProt Q15366); test: co-IP; anti-PCBP2 immunoprecipitates from Bel-7402 cells expressing increasing amounts of CCT3; control cells, YAP knock-down, and re-expression of YAP-WT or YAP-d2WW; PCBP2 adjusted to the same level in the precipitates
[2] = target: poly(rC) binding protein 2 (PCBP2), endogenous (human (endogenous in Bel-7402 and SMMC-7721)) (UniProt Q15366); test: co-IP; endogenous proteins, Bel-7402 lysate, protein A/G-Sepharose, Western/IP lysis buffer; some panels with CCT3 knocked down or overexpressed (cell line not named for Fig. 2f)
[3] = target: T1, transcription factor CP2 (TFCP2), endogenous (human (endogenous in Bel-7402 and SMMC-7721)) (UniProt Q12800); test: as above
T1 sequence: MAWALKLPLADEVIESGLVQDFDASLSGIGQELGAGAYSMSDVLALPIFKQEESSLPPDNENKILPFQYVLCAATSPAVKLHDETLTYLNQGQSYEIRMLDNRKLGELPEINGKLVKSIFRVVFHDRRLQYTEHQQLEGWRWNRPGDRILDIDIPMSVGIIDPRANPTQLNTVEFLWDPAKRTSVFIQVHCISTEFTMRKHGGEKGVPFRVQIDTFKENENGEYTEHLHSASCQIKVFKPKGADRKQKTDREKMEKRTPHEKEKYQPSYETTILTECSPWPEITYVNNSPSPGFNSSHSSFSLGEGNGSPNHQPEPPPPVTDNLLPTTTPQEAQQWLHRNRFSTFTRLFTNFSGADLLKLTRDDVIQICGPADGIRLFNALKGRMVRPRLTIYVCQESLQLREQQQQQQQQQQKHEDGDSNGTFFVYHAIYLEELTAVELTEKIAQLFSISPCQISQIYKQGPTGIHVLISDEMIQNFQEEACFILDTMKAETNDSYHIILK

[4] = target: Yes-associated protein (YAP), endogenous (human (endogenous in Bel-7402 and SMMC-7721)) (UniProt P46937); test: as above

binding [1]: binds
binding [2]: binds
Molecule: Yes-associated protein (YAP), endogenous (from UniProt P46937 1-504)

binding [3]: binds
binding [4]: binds
B1: CCT2, endogenous (protein, UniProt P78371 1-535)
chain: MASLSLAPVNIFKAGADEERAETARLTSFIGAIAIGDLVKSTLGPKGMDKILLSSGRDASLMVTNDGATILKNIGVDNPAAKVLVDMSRVQDDEVGDGTTSVTVLAAELLREAESLIAKKIHPQTIIAGWREATKAAREALLSSAVDHGSDEVKFRQDLMNIAGTTLSSKLLTHHKDHFTKLAVEAVLRLKGSGNLEAIHIIKKLGGSLADSYLDEGFLLDKKIGVNQPKRIENAKILIANTGMDTDKIKIFGSRVRVDSTAKVAEIEHAEKEKMKEKVERILKHGINCFINRQLIYNYPEQLFGAAGVMAIEHADFAGVERLALVTGGEIASTFDHPELVKLGSCKLIEEVMIGEDKLIHFSGVALGEACTIVLRGATQQILDEAERSLHDALCVLAQTVKDSRTVYGGGCSEMLMAHAVTQLANRTPGKEAVAMESYAKALRMLPTIIADNAGYDSADLVAQLRAAHSEGNTTAGLDMREGTIGDMAILGITESFQVKRQVLLSAAEAAEVILRVDNIIKAAPRKRVPDHHPC

binding [4]: binds
B2: transcription factor CP2 (TFCP2), endogenous (protein, UniProt Q12800 1-502)
chain: T1 sequence
